For at least one compound, name, drawing or mass did not settle the structure. Peptide text beside a SMILES is read from it. * marks the point of attachment. 2Furoyl = O=C(c1ccco1)*
Target: T1, human PAR-2 (Homo sapiens, UniProt P55085)
T1 construct: Human colorectal adenocarcinoma cell line, HCT-15, expressing endogenous PAR-2 at high levels; endogenous in cells; host or cells: HCT-15 (human colorectal adenocarcinoma)
T1 sequence (P55085 26-397): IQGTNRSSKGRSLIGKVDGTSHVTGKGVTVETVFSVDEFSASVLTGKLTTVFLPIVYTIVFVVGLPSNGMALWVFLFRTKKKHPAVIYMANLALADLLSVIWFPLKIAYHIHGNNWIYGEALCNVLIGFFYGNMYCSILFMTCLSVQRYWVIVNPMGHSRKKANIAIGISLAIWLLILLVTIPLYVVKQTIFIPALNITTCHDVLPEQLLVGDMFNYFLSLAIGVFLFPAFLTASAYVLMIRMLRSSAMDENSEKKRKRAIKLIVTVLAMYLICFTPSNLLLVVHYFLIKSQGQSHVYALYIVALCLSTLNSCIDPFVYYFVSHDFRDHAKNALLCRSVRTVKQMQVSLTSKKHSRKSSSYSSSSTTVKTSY
Assay: PAR-2 activation potency: intracellular calcium mobilization assay (modified Hawthorne's method) in HCT-15 cells
Type: cell-based
Conditions: HCT-15 calcium mobilization; ratio to EC50 of SLIGKV-OH
Description: PAR-2 activation with the peptide derivative represented by the general formula (I) in accordance with the invention can be tested by various known methods. For example, the Hollenberg's method (Hollenberg, M. D., et al., Can. J. Physiol. Pharmacol., 75, 832-841 (1997)), the Kawabata's method (Kawabata, A., et al., J. Pharmacol. Exp. Ther., 288, 358-370 (1999)) and the Hawthorne's method (Howthorne et al., A High-Throughput Microtiter Plate-Based Calcium Assay for the Study of Protease-Activated Receptor 2 Activation, Analytical Biochemistry 290, 378-379 (2001)) may be used for the test.
The inventors tested the PAR-2 activation potency according to the modified Hawthorne's method. In brief, that is the assay of the calcium mobilization in cells endogenously expressing human PAR-2. In this assay, cells were loaded with Fluorescent Ca2+ indicator dye in presence of Probenecid, an inhibitor of anion exchange transporter, and stimulated with agonists. The agonist-mediated intracellular calcium mobilization was measured using multiwell plate reader.
Human colorectal adenocarcinoma cell line, HCT-15, expressing endogenous PAR-2 at high levels were seeded in 96-well black wall clear bottom plates and subconfluent cells were loaded with Fluorescent Ca2+ indicator dye (Calcium Plus Assay Reagent, Molecular Devices) in serum free medium (RPMI) containing 2.5 mM Probenecid and incubated for 1 hr at 37 C. Then cells were stimulated with various concentrations of test compounds and fluorescent change was determined at wave length of 485 nm for excitation and 525 nm for emission (Cutoff 515 nm) using multiwell scanning fluorometer (FlexStation, Molecular Devices).
SLIGKV-OH (SEQ ID NO: 2) as a known PAR-2 activation peptide was used as a comparative compound, and the results are shown below in Table 1.

SMILES	EC50 value relative to that of the comparative peptide (SLIGKV-OH)
CC[C@H](C)[C@H](NC(=O)[C@H](CC(C)C)NC(=O)c1ccco1)C(=O)NCC(=O)N[C@@H](CCCCN)C(=O)N[C@H](C(N)=O)C(C)C [Example 16] (2Furoyl-LIGKV-NH2; C-terminus assumed)	1/71
CC[C@H](C)[C@H](NC(=O)[C@H](CC(C)C)NC(=O)c1ccco1)C(=O)NCC(=O)N[C@@H](CCCNC(=N)N)C(=O)N[C@@H](CC(C)C)C(N)=O [Example 17]	1/91
CC[C@H](C)[C@H](NC(=O)[C@H](CC(C)C)NC(=O)c1ccco1)C(=O)NCC(=O)N[C@@H](CCCCN)C(=O)N[C@H](C(=O)O)C(C)C [Example 6] (2Furoyl-LIGKV-OH; C-terminus assumed)	about 1/14
CC[C@H](C)[C@H](NC(=O)[C@H](CC(C)C)NC(=O)c1ccco1)C(=O)NCC(=O)N[C@@H](CCCNC(=N)N)C(=O)N[C@@H](CC(C)C)C(=O)O [Example 18]	1/19

— patent US7541339B2, “Par-2-activating peptide derivative and pharmaceutical composition using the same” (The University of Edinburgh, priority 2002, dated 2009)
